The results in this text go back to patent US12173001B1, “Pyrido[3,4-e][1,2,4]triazolo[4,3-c]pyrimidines as CK2 inhibitors” (King Faisal University, priority 2024, dated 2024).

Type in all cases: cell-based
One assay has as its system PC3 (prostate). Put plainly: In vitro cytotoxic activity (MTT) assay, PC3. Particulars: Homo sapiens, Prostate cell, cells exposed for 96 hours, read-out: Cytotoxicity activity IC50 (50% inhibition of cell proliferation). As for the experimental part:
(§1) Compounds 1-16 were screened for their in vitro cytotoxic activity utilizing a 3-(4,5-dimethyl-thiazol-2-yl)-2,5-diphenyltetrazolium bromide (MTT) assay against selected cancer human cell lines consisting of PC3 (prostate), HCT116 (colon), A375 (melanoma), H1299 (lung), MIAPaCa-2 (pancreas), HL60 (leukemia), MCF7 (breast), MDA-MB-231 (breast) (T. Mosmann, J. Immunol. Meth., 1983, 65, 55-63). The cells were cultured at 37° C. in RMPI1640 medium supplemented with 10% fetal bovine serum, 50 IU/mL penicillin, and […] streptomycin in a 5% CO2 incubator. All cells were sub-cultured 3 times/week by trypsinization. Viable cells were seeded and allowed to adhere for 12 hours before a test drug was added in 96-well plates at an initial density of 1.0×10^5 cells/mL. Tumor cell lines were separately exposed to various concentrations of the tested compounds followed by incubation at a temperature of 37° C. during 96 hours inside a medium of fresh RMPI 1640. Cells were subsequently incubated at 37° C. using MTT at 0.5 mg/mL during 4 hours. After removal of supernatant, formazan crystals were dissolved in isopropanol and the optical density was measured at 570 nm. CX-4945 was used as a positive control.

In the next assay the test system is MIAPaCa-2 (pancreas). The experiment in a line: In vitro cytotoxic activity (MTT) assay, MIAPaCa-2. Conditions: Homo sapiens, MIA PaCa-2, cells exposed for 96 hours, read-out: Cytotoxicity activity IC50 (50% inhibition of cell proliferation). Here is the method:
as §1

The test system of a further assay is HCT116 (colon). Put plainly: In vitro cytotoxic activity (MTT) assay, HCT116. Particulars: Homo sapiens, HCT-116, cells exposed for 96 hours, read-out: Cytotoxicity activity IC50 (50% inhibition of cell proliferation). As for the experimental part:
as §1

The subject of another assay is A375 (melanoma). Put plainly: In vitro cytotoxic activity (MTT) assay, A375. Conditions: Homo sapiens, A-375, cells exposed for 96 hours, read-out: Cytotoxicity activity IC50 (50% inhibition of cell proliferation). Here is the method:
as §1

A further assay has as its system HL60 (leukemia). Put plainly: In vitro cytotoxic activity (MTT) assay, HL60. Particulars: Homo sapiens, HL-60, cells exposed for 96 hours, read-out: Cytotoxicity activity IC50 (50% inhibition of cell proliferation). As for the experimental part: as §1
The next assay has as its system MCF7 (breast). Put plainly: In vitro cytotoxic activity (MTT) assay, MCF7. Conditions: Homo sapiens, cells exposed for 96 hours, read-out: Cytotoxicity activity IC50 (50% inhibition of cell proliferation). As for the experimental part:
as §1

Another assay deals with H1299 (lung). Put plainly: In vitro cytotoxic activity (MTT) assay, H1299. Particulars: Homo sapiens, NCI-H1299, cells exposed for 96 hours, read-out: Cytotoxicity activity IC50 (50% inhibition of cell proliferation). Here is the method: as §1
The next assay concerns MDA-MB-231 (breast). Put plainly: In vitro cytotoxic activity (MTT) assay, MDA-MB-231. Conditions: Homo sapiens, cells exposed for 96 hours, read-out: Cytotoxicity activity IC50 (50% inhibition of cell proliferation). As for the experimental part: as §1

The structures appear in SMILES notation.

On to `O=C(O)c1ccc2c(c1)nc(Nc1cccc(Cl)c1)c1ccncc12` [CX-4945, reference compound], for which the IC50 with PC3 (prostate) was 2000 nM; with MIAPaCa-2 (pancreas), 1000 nM; in the assay with HCT116 (colon), 2300 nM; in the assay on A375 (melanoma) it was 4100 nM; in the assay on HL60 (leukemia), 3700 nM; in the assay on MCF7 (breast), 9100 nM. Besides, the results for the IC50 in the assay with H1299 (lung) and in the assay on MDA-MB-231 (breast) were 2300 nM and 6200 nM, respectively.
